# The list shows a part of the results. Single values are uncertain, as repeats are few or missing.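 Imaging used 1,536-well plates; nuclei positive for cleaved PARP by antibody were divided by total DNA-stained nuclei to yield the apoptosis fraction. Doses for screening kept most cells viable, and cell lines differ markedly in resting and induced cleaved-PARP levels.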
# Tested on: SkMel30
# Test: cleaved PARP positive nuclei fraction relative to DMSO control; melanoma cells; higher = more apoptosis
# Details: library dose: low library concentration; 72 h
row,Compound,cleaved PARP positive nuclei fraction [%]
1,"COc1cc([C@@H]2c3cc4c(cc3[C@@H](O[C@@H]3O[C@@H]5CO[C@@H](C)O[C@H]5[C@H](O)[C@H]3O)[C@H]3COC(=O)[C@H]23)OCO4)cc(OC)c1O [etoposide] + C/C(O)=C(\C#N)C(=O)Nc1cc(Br)ccc1Br [LFM-A13] (first compound 0.02 µM, partner dose 2 µM)",25.1
2,"Cn1cnc2c(F)c(Nc3ccc(Br)cc3Cl)c(C(=O)NOCCO)cc21 [selumetinib] + O=C(Oc1ccc([N+](=O)[O-])cc1)N1CCC(C(O)(c2ccc3c(c2)OCO3)c2ccc3c(c2)OCO3)CC1 [JZL184] (first compound 0.015 µM, partner dose 1 µM)",102
3,"Nc1ncn([C@H]2C[C@H](O)[C@@H](CO)O2)c(=O)n1 [decitabine] + O=C(Oc1ccc([N+](=O)[O-])cc1)N1CCC(C(O)(c2ccc3c(c2)OCO3)c2ccc3c(c2)OCO3)CC1 [JZL184] (first compound 0.1 µM, partner dose 1 µM)",629
4,"C[As](C)SC[C@H](NC(=O)CC[C@H](N)C(=O)O)C(=O)NCC(=O)O [Darinaparsin] + O=C(O)c1ccc(-c2c[nH]c3ncc(-c4ccccc4)cc23)cc1C1CCCC1 [GSK650394] (first compound 0.4 µM, partner dose 0.16 µM)",123
5,"O=C(Nc1cc(C(F)(F)F)cc(C(F)(F)F)c1)c1cc(Cl)ccc1O + O=C(Oc1ccc([N+](=O)[O-])cc1)N1CCC(C(O)(c2ccc3c(c2)OCO3)c2ccc3c(c2)OCO3)CC1 [JZL184] (first compound 0.016 µM, partner dose 1 µM)",71.8
6,"Cn1cc(C2=C(c3cn(C4CCN(Cc5ccccn5)CC4)c4ccccc34)C(=O)NC2=O)c2ccccc21 [Enzastaurin] + O=C(Oc1ccc([N+](=O)[O-])cc1)N1CCC(C(O)(c2ccc3c(c2)OCO3)c2ccc3c(c2)OCO3)CC1 [JZL184] (first compound 0.8 µM, partner dose 1 µM)",48
7,"N.N.[Cl][Pt][Cl] [cisplatin] + CO[C@@H]1[C@H](N(C)C(=O)c2ccccc2)C[C@H]2O[C@]1(C)n1c3ccccc3c3c4c(c5c6ccccc6n2c5c31)C(=O)NC4 [Midostaurin] (first compound 1.6 µM, partner dose 0.08 µM)",58.6
8,"CCN(CC)CCNC(=O)c1c(C)[nH]c(/C=C2\C(=O)Nc3ccc(F)cc32)c1C [sunitinib] + O=C(Oc1ccc([N+](=O)[O-])cc1)N1CCC(C(O)(c2ccc3c(c2)OCO3)c2ccc3c(c2)OCO3)CC1 [JZL184] (first compound 0.4 µM, partner dose 1 µM)",97.9
9,"N.N.[Cl][Pt][Cl] [cisplatin] + Oc1cc(-c2nc(-c3ccccc3)[nH]c2-c2ccncc2)ccc1Cl [L779450] (first compound 1.6 µM, partner dose 0.2 µM)",98.5
10,"Clc1ccc(Nc2nnc(Cc3ccncc3)c3ccccc23)cc1 [vatalanib] + O=C(Oc1ccc([N+](=O)[O-])cc1)N1CCC(C(O)(c2ccc3c(c2)OCO3)c2ccc3c(c2)OCO3)CC1 [JZL184] (first compound 2 µM, partner dose 1 µM)",26.6
11,"C[As](C)SC[C@H](NC(=O)CC[C@H](N)C(=O)O)C(=O)NCC(=O)O [Darinaparsin] + OCCn1cc(-c2cnc3nnn(Cc4ccc5ncccc5c4)c3n2)cn1 [PF04217903] (first compound 0.4 µM, partner dose 1 µM)",50.8
12,"C[C@@H](N)c1ccc(C(=O)Nc2ccnc3[nH]ccc23)cc1 + Cc1cc(SCc2sc(-c3ccc(C(F)(F)F)c(F)c3)nc2C)ccc1OCC(=O)O [GW0742] (first compound 0.4 µM, partner dose 2 µM)",117
13,"N.N.[Cl][Pt][Cl] [cisplatin] + Cn1cncc1[C@@](N)(c1ccc(Cl)cc1)c1ccc2c(c1)c(-c1cccc(Cl)c1)cc(=O)n2C [tipifarnib] (first compound 1.6 µM, partner dose 0.01 µM)",127

# Shown as tab-separated lines: part of the list above
row	Compound	cleaved PARP positive nuclei fraction [%]
2	Cn1cnc2c(F)c(Nc3ccc(Br)cc3Cl)c(C(=O)NOCCO)cc21 [selumetinib] + O=C(Oc1ccc([N+](=O)[O-])cc1)N1CCC(C(O)(c2ccc3c(c2)OCO3)c2ccc3c(c2)OCO3)CC1 [JZL184] (first compound 0.015 µM, partner dose 1 µM)	102
7	N.N.[Cl][Pt][Cl] [cisplatin] + CO[C@@H]1[C@H](N(C)C(=O)c2ccccc2)C[C@H]2O[C@]1(C)n1c3ccccc3c3c4c(c5c6ccccc6n2c5c31)C(=O)NC4 [Midostaurin] (first compound 1.6 µM, partner dose 0.08 µM)	58.6

# Source: the supplement of paper PMC4604168 (melanoma cell lines)
